# Results deposited as PubChem BioAssay AID652259 (Drosophila RNAi Screening Center, 2013)
# Assay: 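Genome-wide hunt for genes that control Wingless pathway activity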 (primary screen)
# Cells: Drosophila clone 8 imaginal disc epithelial cells
# Reagents: long dsRNA against Drosophila genes
# Conditions: pathway stimulated by co-transfected Wingless expression plasmid
# Measurement: 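Firefly luciferase from a tcf-site Wingless reporter, measured alongside co-transfected Renilla luciferase that tracks transfection; pathway stimulated by a Wingless plasmid; the firefly-to-Renilla ratio is not deposited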
# Reading the numbers: firefly reporter light: higher = more Wg reporter light, before normalisation; Renilla control light: higher = more transfected or surviving cells
# Call rule: 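a knock-down is a candidate when at least two out of four statistical tests show it departing from its plate mean; one test alone signals a weak candidate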
# Meaning of the calls: active = candidate regulator (raises or lowers reporter); inactive = not a candidate
# The screen tested about 22,000 reagents; shown is a random part of those that have a named target and a result. In the full data, 233 (1.1%) were called active. 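Light values are raw, unnormalised plate reads; the ratio scores behind the reporter calls were not deposited.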 A number with no mark means an inactive call. A plus sign joins genes that one reagent is predicted to hit. Not stated in the record: the amount of reagent, the time to read-out, the dose of the treatment.
gene,dsRNA,"reporter change call, replicate 1","firefly reporter light, replicate 1","firefly reporter light, replicate 2","Renilla control light, replicate 1","Renilla control light, replicate 2"
Ptp99A (Protein tyrosine phosphatase 99A),DRSC13933,,5680,,2054,
Ptp99A (Protein tyrosine phosphatase 99A),DRSC13939,,4592,,2197,
Ptp99A (Protein tyrosine phosphatase 99A),DRSC14319,,5802,,2560,
Ptp99A (Protein tyrosine phosphatase 99A),DRSC14320,,13004,,3165,
Ptp99A (Protein tyrosine phosphatase 99A),DRSC16803,,6742,,2572,
Ptp99A (Protein tyrosine phosphatase 99A),DRSC22125,,8.16e5,7.85e5,3.67e5,3.83e5
Ptp99A (Protein tyrosine phosphatase 99A),DRSC22477,,4.64e5,4.28e5,1.79e5,1.52e5
CG34199,DRSC05867,,15890,,9399,
wek (weckle),DRSC03561,,6023,,2240,
Had2 (beta Hydroxy acid dehydrogenase 2),DRSC05971,,14753,,4583,
Est-P (Esterase P),DRSC11163,,6020,,1803,
vn (vein),DRSC11408,Wg reporter activity raised (active),4957,11466,1212,1858
CG17560,DRSC15242,,12746,,3953,
ckn (caskin),DRSC06149,,13856,,3681,
Fcp3C (Follicle cell protein 3C),DRSC18665,,17586,,12012,
Spn47C (Serpin 47C),DRSC07030,,8481,,2843,
RfC4 (Replication factor C subunit 4),DRSC08691,,8317,,3174,
CG42306 + Gint3,DRSC06934,,13555,,5085,
NAAT1 (Nutrient Amino Acid Transporter 1),DRSC18300,,16885,,10608,
Nup188 (Nucleoporin 188kDa),DRSC21830,,7.76e5,8.20e5,2.75e5,2.62e5
CG10341,DRSC02040,,5941,,2477,
Ice1 (Interacts with the C terminus of ELL 1),DRSC04191,,2618,5469,353,1106
lncRNA:Hsromega (Heat shock RNA omega),DRSC22875,,5.18e5,5.73e5,2.39e5,68896
bt (bent),DRSC17129,,2075,5302,812,2188
bt (bent),DRSC17171,,1571,6931,969,2263
Sras (severas),DRSC11287,,1218,5347,1408,3075
Hs6st (Heparan sulfate 6-O-sulfotransferase),DRSC14348,,17562,,4546,
Hs6st (Heparan sulfate 6-O-sulfotransferase),DRSC15182,,27330,,6749,
Hs6st (Heparan sulfate 6-O-sulfotransferase),DRSC15581,,28777,,6642,
Hs6st (Heparan sulfate 6-O-sulfotransferase),DRSC21732,,7.53e5,7.29e5,4.34e5,2.91e5
trbl (tribbles),DRSC11901,,12704,,4305,
"beta-PheRS (Phenylalanyl-tRNA synthetase, beta-subunit)",DRSC15859,,1514,4633,684,1530
CG13223,DRSC06344,,4819,,2116,
fon (fondue),DRSC02507,,8432,,2553,
klar (klarsicht),DRSC08718,,19472,,6902,
klar (klarsicht),DRSC22393,,6.39e5,6.52e5,2.50e5,2.43e5
CSN1b (COP9 signalosome subunit 1b),DRSC11108,,6919,,2215,
Cen (Centrocortin),DRSC02704,,11993,,2359,
kek1 (kekkon 1),DRSC03551,,2377,10887,1094,2631
Gr93a (Gustatory receptor 93a),DRSC14593,,38096,,6067,
mRpL30 (mitochondrial ribosomal protein L30),DRSC18416,,16886,,8315,
Acsx1L (Acyl-CoA synthetase X1 L),DRSC16014,,20710,,2560,
CG31688,DRSC02117,,2843,5032,395,1197
CG31688,DRSC02682,,2650,5184,644,2301
Nufip,DRSC10397,,5265,,1939,
CG33476,DRSC22888,,6.15e5,5.88e5,2.31e5,1.74e5
CG10874,DRSC00297,,2988,7824,1158,2397
CG5592,DRSC10524,,2019,5392,1591,3162
CG43244,DRSC05336,,21516,,15437,
ckd (cracked),DRSC08418,,6928,,3149,
tth (toothrin),DRSC19435,,5435,9645,698,1345
CG1824,DRSC19796,,17904,,8308,
Ccp84Ad,DRSC12589,Wg reporter activity raised (active),31669,,3569,
Ccp84Ad,DRSC22854,,4.01e5,3.25e5,1.38e5,1.73e5
Sgf11 (SAGA associated factor 11kDa),DRSC09987,,7164,,2918,
prel (preli-like),DRSC07271,,14973,,3749,
Kr (Kruppel),DRSC04622,,1548,7264,512,3632
tho2,DRSC00646,,10183,,2976,
CG32444,DRSC11677,,6497,,2935,
CG3281,DRSC15470,,10596,,5026,
ppk25 (pickpocket 25),DRSC04973,,2544,6651,797,2800
Xrp1,DRSC15282,,8244,,637,
Xrp1,DRSC15283,,12544,,2569,
Xpac (Xeroderma pigmentosum group A-like),DRSC18730,,17442,,10037,
CG14820,DRSC10191,,3611,7068,2080,5749
sing (singles bar),DRSC19530,,19597,,8739,
CG32812,DRSC18478,,16443,,10325,
Hph (HIF prolyl hydroxylase),DRSC12164,,7408,,3228,
Hph (HIF prolyl hydroxylase),DRSC12251,,10801,,1797,
Hph (HIF prolyl hydroxylase),DRSC21876,,7.49e5,7.78e5,3.19e5,4.20e5
CG34315 + Orc3,DRSC07642,,5898,,2107,
CG33552,DRSC01551,,17956,,8417,
CG5445,DRSC19943,,23572,,7768,
